The supplement of paper PMC9015667
Where a name gives a salt, the structure may show the parent alone. This is one part of the list. Repeats are few or missing, and single values can be far off.

Key:
Assay in all cases: reduction in cell viability relative to untreated/vehicle; higher = more growth inhibition
Conditions in all cases: 200 nM; 72 h
M229P = test system: M229P (parental melanoma line)
M229R = test system: M229R (matched melanoma line resistant to BRAF inhibitors)
M238P = test system: M238P (parental melanoma line)
M238R = test system: M238R (matched melanoma line resistant to BRAF inhibitors)
M249P = test system: M249P (parental melanoma line)
M249R = test system: M249R (matched melanoma line resistant to BRAF inhibitors)
UACC62P = test system: UACC62P (parental melanoma line)
UACC62R = test system: UACC62R (matched melanoma line resistant to BRAF inhibitors)

Measured: reduction in cell viability

CC(C)(C)C(=O)Oc1ccc(S(=O)(=O)Nc2ccccc2C(=O)NCC(=O)O)cc1 [Sivelestat]
0.07%: UACC62P
< 0%: all other assays above

Cc1ccc(CN2CCNCC2)cc1NC(=O)CNc1ccc(F)c(F)c1
< 0%: all assays above

Cc1ccc(C(=O)N(CCCN)[C@@H](c2nc3cc(Cl)ccc3c(=O)n2Cc2ccccc2)C(C)C)cc1 [Ispinesib]
76.2%: UACC62R
5.71%: M229P
30%: M249P
58.7%: M238P
29.2%: UACC62P
56.1%: M238R
1.27%: M229R
33.7%: M249R

COc1cccc(-c2cc(=O)c3ccccc3o2)c1N
2.06%: UACC62P
< 0%: all other assays above

N=c1ccn2c(n1)O[C@H]1[C@H](O)[C@@H](CO)O[C@H]12 [Cyclocytidine HCl]
24%: M238P
4.22%: M249P
27.5%: M229R
60.9%: UACC62R
< 0%: all other assays above

CC1Cc2ccccc2N1NC(=O)c1ccc(Cl)c(S(N)(=O)=O)c1 (stereo not drawn) [Indapamide]
< 0%: all assays above

c1cc(-c2cnn3cc(-c4ccc(OCCN5CCCCC5)cc4)cnc23)ccn1 [Dorsomorphin]
1.86%: UACC62P
< 0%: all other assays above

COCC[n+]1c2c(n(Cc3cnccn3)c1C)C(=O)c1ccccc1C2=O [Sepantronium bromide]
89.4%: M238P | UACC62P
91.9%: M249P
100%: UACC62R
96.4%: M229R
95.2%: M249R
94.8%: M238R
92.7%: M229P

CCCC(CCC)C(=O)O [Valproic acid sodium salt]
< 0%: all assays above

CN[C@@H](C)C(=O)N[C@H]1CN(C(=O)CC(C)C)CC[C@H]2CC[C@@H](C(=O)NC(c3ccccc3)c3ccccc3)N2C1=O
19.9%: UACC62R
2.71%: UACC62P
8.2%: M238P
< 0%: all other assays above

O=C(Nc1cccc(C(F)(F)F)c1)Nc1cc(S(=O)(=O)NC2CC2)ccc1-c1ccsc1
< 0%: all assays above

C[C@]1(O)C[C@@H](c2nc(-c3ccc4ccc(-c5ccccc5)nc4c3)c3c(N)nccn32)C1 [Linsitinib]
7.33%: M229R
10.2%: M238P
< 0%: all other assays above

CC(C)=CCC/C(C)=C/CC/C(C)=C/CSc1ccccc1C(=O)O [Salirasib]
< 0%: all assays above

CC[C@]1(O)C[C@H]2CN(CCc3c([nH]c4ccccc34)[C@@](C(=O)OC)(c3cc4c(cc3OC)N(C=O)[C@H]3[C@@](O)(C(=O)OC)[C@H](OC(C)=O)[C@]5(CC)C=CCN6CC[C@]43[C@@H]65)C2)C1 [Vincristine sulfate]
51%: M229R
50.2%: UACC62P
54.5%: M249R
65.6%: M238P
70.8%: M238R
35.9%: M229P
60.2%: M249P
84.9%: UACC62R

CC(COc1ccccc1)N(CCCl)Cc1ccccc1 (stereo not drawn) [Phenoxybenzamine hydrochloride]
1.91%: M229R
< 0%: all other assays above

O=C(O)c1cccnc1Nc1cccc(C(F)(F)F)c1 [Niflumic acid]
6.82%: UACC62P
< 0%: all other assays above

CC[C@H]1OC(=O)[C@H](C)[C@@H](O[C@H]2C[C@@](C)(OC)[C@@H](O)[C@H](C)O2)[C@H](C)[C@@H](O[C@@H]2O[C@H](C)C[C@H](N(C)C)[C@H]2O)[C@](C)(O)C[C@@H](C)/C(=N\OCOCCOC)[C@H](C)[C@@H](O)[C@]1(C)O [Roxithromycin]
< 0%: all assays above

CCNC(=O)CCC/C=C\C[C@@H]1[C@@H](/C=C/[C@@H](O)CCc2ccccc2)[C@H](O)C[C@@H]1O [Bimatoprost]
< 0%: all assays above

CN(C[C@@H]1COCCO1)S(=O)(=O)Nc1ccc2ccc3ncc(-c4cnn(C)c4)cc3c(=O)c2c1
< 0%: all assays above

O=C(Nc1nc2ccccc2n1CCN1CCOCC1)c1cccc([N+](=O)[O-])c1 [IRAK-1-4 Inhibitor I]
< 0%: all assays above

CCCCC(C)(C)[C@H](O)/C=C/[C@H]1[C@H](O)CC(=O)[C@@H]1C/C=C\CCCC(=O)O [16,16-dimethyl PGE2]
< 0%: all assays above

COc1ccccc1N1CCN(CCN(C(=O)C2CCCCC2)c2ccccn2)CC1
13.1%: UACC62P
< 0%: all other assays above

CN1CCC(CNc2ccc3ncc(-c4cccc(OC(F)(F)F)c4)n3n2)CC1
< 0%: all assays above

C[C@@H](N)c1ccc(C(=O)Nc2ccnc3[nH]ccc23)cc1
10.7%: M229R
< 0%: all other assays above

Cc1cccc(-c2[nH]c(C(C)(C)C)nc2-c2ccc3nccnc3c2)n1
3.59%: UACC62P
< 0%: all other assays above

Cc1cnc(Nc2ccc(OCCN3CCCC3)cc2)nc1Nc1cccc(S(=O)(=O)NC(C)(C)C)c1
20.6%: M238P
< 0%: all other assays above

An excerpt from above in order of formula weight, falling.
Cc1cnc(Nc2ccc(OCCN3CCCC3)cc2)nc1Nc1cccc(S(=O)(=O)NC(C)(C)C)c1
20.6%: M238P
< 0%: all other assays above

COc1ccccc1N1CCN(CCN(C(=O)C2CCCCC2)c2ccccn2)CC1
13.1%: UACC62P
< 0%: all other assays above

C[C@@H](N)c1ccc(C(=O)Nc2ccnc3[nH]ccc23)cc1
10.7%: M229R
< 0%: all other assays above

Continued.

C[N+](C)([O-])CCNc1ccc(NCC[N+](C)(C)[O-])c2c1C(=O)c1c(O)ccc(O)c1C2=O [Banoxantrone]
10.9%: UACC62R
< 0%: all other assays above

CC[C@H](c1ccc(O)cc1)[C@@H](CC)c1ccc(O)cc1 [Hexestrol]
4.8%: UACC62P
< 0%: all other assays above

CC(C)(C)[C@H](NC(=O)c1ccc(N)c(Cl)c1)C(=O)N1CCC[C@H]1C(=O)N[C@H](C#N)CC(=O)O
< 0%: all assays above

COc1ccc2cc3[n+](cc2c1OC)CCc1cc2c(cc1-3)OCO2 [Berberine]
< 0%: all assays above

Cc1ccnc(NS(=O)(=O)c2ccc(NC(=O)Nc3ccc(S(=O)(=O)Nc4nccc(C)n4)cc3)cc2)n1
1.55%: UACC62R
< 0%: all other assays above

CCCCCNC(=O)N1CCC(CN(Cc2ccc(Cl)cc2)Cc2ccc([N+](=O)[O-])s2)C1 (stereo not drawn)
< 0%: all assays above

C=CCc1ccc(O)c(-c2ccc(O)c(CC=C)c2)c1 [Honokiol]
3.2%: M238P
7.68%: UACC62P
< 0%: all other assays above

Cc1cn2cc(C(=O)N(C)CCO)cc(N[C@@H]3CCOc4cccc(C)c43)c2n1
< 0%: all assays above

Cc1nc(=O)c2cc(CN(C)c3ccc(C(=O)N[C@@H](CCC(=O)O)C(=O)O)s3)ccc2[nH]1 [Raltitrexed]
19.1%: M238P
28.4%: UACC62P
66.6%: UACC62R
11.8%: M229R
< 0%: all other assays above

O=C(O)C1=C[C@@H](O)[C@@H](O)[C@H](O)C1 [Shikimic acid]
< 0%: all assays above

CN(C)CCOc1cc(-c2cn[nH]c2)ccc1NC(=O)C1COc2ccccc2O1 (stereo not drawn)
9.93%: M229R
6.69%: UACC62P
< 0%: all other assays above

O=c1[nH]nc(Sc2ncc([N+](=O)[O-])s2)n1-c1ccc2c(c1)OCCO2
< 0%: all assays above

Nc1nc2ccc(OC(F)(F)F)cc2s1 [Riluzole]
< 0%: all assays above

C[C@@]12C[C@@]3(O)O[C@@H](O1)[C@]1(COC(=O)c4ccccc4)[C@H]3C[C@@]12O[C@@H]1O[C@H](CO)[C@@H](O)[C@H](O)[C@H]1O [Paeoniflorin]
< 0%: all assays above

CC1(CN2CCC(n3c(=O)[nH]c4ccccc43)CC2)OCc2ccccc2-n2cccc21 (stereo not drawn) [Zaldaride maleate]
< 0%: all assays above
